± gives the standard deviation of the averaged measurements. Some of the results follow. Values are raw readings; no control value is given beside them.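 The test system is a mixed culture of neurons, microglia and astrocytes in which bacterial LPS triggers microglia-driven neuron loss, modelling inflammatory neurodegeneration. Each compound was compared with vehicle (DMSO) wells on the same plates, and the SYK inhibitor BAY61-3606 served as the reference neuroprotective control.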
Test system: rat primary cerebellar neuron-glia coculture
Test: necrotic cell count (DRAQ7+) per image field (cells per field); higher = more necrosis
Settings: LPS 0 ng/mL; 1 µM; treatment time 3 days
Procedure: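 Primary rat (P3-7) cerebellar neuron-glia cocultures in 384-well plates were treated at DIV7 with 1 uM compound, then with or without 100 ng/mL LPS 30 min later, for 3 days. At DIV10 live cells were stained with Hoechst 33342, NeuO (live neurons), IB4-AF594 (microglia) and DRAQ7 (necrotic cells) and imaged at 10x (4 fields per well, IN Cell Analyzer 6000). Cells were classified with Cellpose/CellProfiler plus a Random Trees classifier. Values are per-well mean counts per image field (raw, not min-max normalised) and the median microglial FormFactor per image. Three technical replicates per repeat across 4 biological repeats; DMSO and BAY61-3606 serve as controls.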

Going from `C#C[C@]1(O)CC[C@H]2[C@@H]3CCc4cc(O)ccc4[C@H]3CC[C@@]21C` to `C[C@]12CC[C@@H]3c4ccc(O)cc4C[C@@H](CCCCCCCCC[S+]([O-])CCCC(F)(F)C(F)(F)F)[C@H]3[C@@H]1CC[C@@H]2O` (stereo not given in full), the necrotic cell count rises from 78.2 ± 35 to 206 ± 45.

`Cc1nccn1CC1CCc2c(c3ccccc3n2C)C1=O` (stereo not given) and `Cn1/c(=N/NC(=O)C23CC4CC(CC(C4)C2)C3)sc2ccccc21` are within error of each other in necrotic cell count: 82.1 ± 38 for the first, 88.3 ± 30 for the second.

`COc1cc2ncnc(Nc3cccc(Cl)c3F)c2cc1OC(=O)N1CCN(C)C[C@H]1C` and `COc1cc2ncnc(Nc3ccc(Oc4ccccc4)cc3)c2cc1OC` are within error of each other in necrotic cell count: 79.6 ± 32 for the first, 74.5 ± 30 for the second.

Compared with `CC[C@@H](C)Nc1cc(C(=O)NC2CC3CCC(C2)N3c2ccc(C(=O)C3CC3)cn2)c(C)cc1C(N)=O` (stereo not given in full), `Cc1ncc(Cl)cc1NCc1ccc(C(=O)N[C@@H](CC2CCCC2)C(=O)NC2CC2)s1` is lower in necrotic cell count: 873 ± 490 for the first, 85.3 ± 26 for the second.

Going from `O=C(Nc1cccc2c(=O)cc(-c3nnn[nH]3)oc12)c1ccc(OCCCCc2ccccc2)cc1` to `Nc1ccccc1NC(=O)c1ccc(CNC(=O)OCc2cccnc2)cc1`, the necrotic cell count rises from 90.7 ± 31 to 468 ± 160.

`COc1ccc([C@@H]2Sc3ccccc3N(CCN(C)C)C(=O)[C@@H]2OC(C)=O)cc1` and `COc1ccc(-c2nc(-c3cccs3)[nH]c2-c2ccc(OC)cc2)cc1` are within error of each other in necrotic cell count: 80.5 ± 28 for the first, 76.2 ± 28 for the second.

`O=C(Nc1cc(C2CC2)[nH]n1)c1ccc(Br)cc1` and `CC(=O)Nc1ccc(O)cc1` are within error of each other in necrotic cell count: 74.2 ± 29 for the first, 84 ± 28 for the second.

`CCOC(=O)c1c(NC(=O)Cc2ccccc2)sc2c1CCN(C(=O)OCC)C2` and `CCN(CC)CCOC(=O)C1(c2ccccc2)CCCC1` are within error of each other in necrotic cell count: 78.1 ± 28 for the first, 75.7 ± 24 for the second.

`O=C(Nc1ccc2c(c1)N(S(=O)(=O)c1ccc(F)cc1)CCC2)c1c(F)cccc1Cl` and `CC(C)NC[C@@H](C(=O)N1CCN(c2ncnc3c2[C@H](C)C[C@H]3O)CC1)c1ccc(Cl)cc1` are within error of each other in necrotic cell count: 82.1 ± 24 for the first, 99.9 ± 26 for the second.

`CCCCN1C[C@H](O)[C@@H](O)[C@H](O)[C@H]1CO` and `COc1ccc2[nH]cc(CCNC(C)=O)c2c1` are within error of each other in necrotic cell count: 88.7 ± 28 for the first, 65.5 ± 14 for the second.

Same assay, conditions: LPS 100 ng/mL; 1 µM; treatment time 3 days

Compared with `C#C[C@]1(O)CC[C@H]2[C@@H]3CCc4cc(O)ccc4[C@H]3CC[C@@]21C`, `C[C@]12CC[C@@H]3c4ccc(O)cc4C[C@@H](CCCCCCCCC[S+]([O-])CCCC(F)(F)C(F)(F)F)[C@H]3[C@@H]1CC[C@@H]2O` (stereo not given in full) is lower in necrotic cell count: 1110 ± 400 for the first, 121 ± 25 for the second.

`Cc1nccn1CC1CCc2c(c3ccccc3n2C)C1=O` (stereo not given) and `Cn1/c(=N/NC(=O)C23CC4CC(CC(C4)C2)C3)sc2ccccc21` are within error of each other in necrotic cell count: 900 ± 330 for the first, 918 ± 340 for the second.

`COc1cc2ncnc(Nc3cccc(Cl)c3F)c2cc1OC(=O)N1CCN(C)C[C@H]1C` and `COc1cc2ncnc(Nc3ccc(Oc4ccccc4)cc3)c2cc1OC` are within error of each other in necrotic cell count: 924 ± 310 for the first, 727 ± 210 for the second.

`CC[C@@H](C)Nc1cc(C(=O)NC2CC3CCC(C2)N3c2ccc(C(=O)C3CC3)cn2)c(C)cc1C(N)=O` (stereo not given in full) and `Cc1ncc(Cl)cc1NCc1ccc(C(=O)N[C@@H](CC2CCCC2)C(=O)NC2CC2)s1` are within error of each other in necrotic cell count: 1020 ± 480 for the first, 909 ± 350 for the second.

Going from `O=C(Nc1cccc2c(=O)cc(-c3nnn[nH]3)oc12)c1ccc(OCCCCc2ccccc2)cc1` to `Nc1ccccc1NC(=O)c1ccc(CNC(=O)OCc2cccnc2)cc1`, the necrotic cell count rises from 970 ± 330 to 1800 ± 450.

`COc1ccc([C@@H]2Sc3ccccc3N(CCN(C)C)C(=O)[C@@H]2OC(C)=O)cc1` and `COc1ccc(-c2nc(-c3cccs3)[nH]c2-c2ccc(OC)cc2)cc1` are within error of each other in necrotic cell count: 987 ± 380 for the first, 799 ± 350 for the second.

`O=C(Nc1cc(C2CC2)[nH]n1)c1ccc(Br)cc1` and `CC(=O)Nc1ccc(O)cc1` are within error of each other in necrotic cell count: 959 ± 320 for the first, 773 ± 230 for the second.

`CCOC(=O)c1c(NC(=O)Cc2ccccc2)sc2c1CCN(C(=O)OCC)C2` and `CCN(CC)CCOC(=O)C1(c2ccccc2)CCCC1` are within error of each other in necrotic cell count: 1050 ± 280 for the first, 875 ± 170 for the second.

`O=C(Nc1ccc2c(c1)N(S(=O)(=O)c1ccc(F)cc1)CCC2)c1c(F)cccc1Cl` and `CC(C)NC[C@@H](C(=O)N1CCN(c2ncnc3c2[C@H](C)C[C@H]3O)CC1)c1ccc(Cl)cc1` are within error of each other in necrotic cell count: 838 ± 410 for the first, 940 ± 400 for the second.

`CCCCN1C[C@H](O)[C@@H](O)[C@H](O)[C@H]1CO` and `COc1ccc2[nH]cc(CCNC(C)=O)c2c1` are within error of each other in necrotic cell count: 967 ± 420 for the first, 1060 ± 370 for the second.
